Our source for the binding signal values is paper PMC7819943, “Rice protein-binding microarrays: a tool to detect cis-acting elements near promoter regions in rice”.

By UniProt entry, the sequences of proteins in these tests, tags left out.
UniProt Q0JBA9, entry or part of it: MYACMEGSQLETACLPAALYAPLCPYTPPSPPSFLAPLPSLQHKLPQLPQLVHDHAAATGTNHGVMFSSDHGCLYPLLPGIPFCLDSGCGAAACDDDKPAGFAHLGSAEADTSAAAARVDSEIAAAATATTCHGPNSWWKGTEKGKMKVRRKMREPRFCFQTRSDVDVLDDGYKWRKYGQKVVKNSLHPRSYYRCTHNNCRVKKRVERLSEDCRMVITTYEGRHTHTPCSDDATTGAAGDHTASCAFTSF

The list shows a part of the results.

In the experiment the target is OsWRKY34 (Oryza sativa, UniProt Q0JBA9 1-250). The experiment can be described thus: protein-binding microarray (RPBM); PBS, 2% BSA, 51.3 ng/ul salmon testes DNA, 50 uM zinc acetate, 200 nM TF, 25 C, 1 h; high values mean tight binding. Conditions: protein: recombinant; tags: N-terminal polyhistidine and DsRed monomer fusion (pET32a); label: CyDye5-dUTP incorporated in the synthesized complementary strand; 3' TTTTT single-stranded linker to array surface; dsDNA, one strand shown. In a few lines:
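Ni–NTA purification followed expression in E. coli BL21-CodonPlus of transcription factors fused N-terminally to a polyhistidine tag and DsRed. At 200 nM in PBS with 2% BSA, salmon testes DNA and 50 µM zinc acetate, the protein was incubated for 1 h at 25 °C with a custom Agilent array that had been primer-extended with Cy5-dUTP and blocked with 2% BSA. After washing, the array was read on an Axon 4000B scanner. The binding signal is per-feature fluorescence intensity in arbitrary units.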
On to “GGGGAGCTCGGGTACGTGGTGGCGCGCGCGCACTGGGGCACGGAGTCACCTAGTGCAG”, for which the binding signal was 8090 fluorescence intensity (a.u.).

Consider “AACTCACTCTTACACCTACATACTCATTCATCAAATCCAACGGAGTCACCTAGTGCAG”, for which the binding signal is 8120 fluorescence intensity (a.u.).

“AGCTAGTATGGGGTAGTAGCCAATTCCAATCTTTGTTATCCGGAGTCACCTAGTGCAG”: the binding signal is 8320 fluorescence intensity (a.u.).

Regarding “TCCACCATGGTCCCACATGTCAGCTGAATCTTCCACTGCACGGAGTCACCTAGTGCAG”, the binding signal is 9050 fluorescence intensity (a.u.).

As to “TTATGCGTGACTTGTCTTTTTAATTTTTTAATAATTTTTTCGGAGTCACCTAGTGCAG”, the binding signal is 9370 fluorescence intensity (a.u.).

Turning to “TGTAGTCTGTTGCGCCTCCCCTGCTGGTACGTGTGGCTCCCGGAGTCACCTAGTGCAG”, the binding signal is 9180 fluorescence intensity (a.u.).

With “GCCGCGGGTCGCCGGCGGGGTGGGTGGGAGGCCGTGATGGCGGAGTCACCTAGTGCAG”, the binding signal is 9870 fluorescence intensity (a.u.).

With “GCATATATGCTTGCGTGCGCGCTTCATGCATGTCAATAACCGGAGTCACCTAGTGCAG”, the binding signal was 8150 fluorescence intensity (a.u.).

With “CTTCGCTGTGTCGATTCTGTACGGCTTCGACTACTTCCTCCGGAGTCACCTAGTGCAG”, the binding signal was 8380 fluorescence intensity (a.u.).

Turning to “GGTCACCGCCCGACTTTTGCGTCTTTGCCAACTGGTAATACGGAGTCACCTAGTGCAG”, the binding signal is 8060 fluorescence intensity (a.u.).

For the sequence “CCCCAGATGAGCAGCCCGCGCCCCGCCGGCGCCACCCGCGCGGAGTCACCTAGTGCAG”, the binding signal is 10200 fluorescence intensity (a.u.).

For “GTTAATTACGGGACTGTTCCTGCTAACGTCCTCCGTCCGACGGAGTCACCTAGTGCAG”, the binding signal is 9320 fluorescence intensity (a.u.).

Consider “GCTGGGCTGCTGCTCAACGCTGTCCTTCTCAGTCGCACATCGGAGTCACCTAGTGCAG”, for which the binding signal is 9840 fluorescence intensity (a.u.).

As for “GCGAGCTGATGCATCCCACACAGTTCTCTTCTCTCGGCGCCGGAGTCACCTAGTGCAG”, the binding signal was 8080 fluorescence intensity (a.u.).

On to “GACACAGAGAGATGCTTTTTTGACAACCATAGCCAAATTCCGGAGTCACCTAGTGCAG”, for which the binding signal was 10500 fluorescence intensity (a.u.).

As to “CGGCTAGAGTGGTGGTGGTGGTGGTGGTGGCGTCGAGATGCGGAGTCACCTAGTGCAG”, the binding signal is 11700 fluorescence intensity (a.u.).

In the case of “TCAAGTCATGCCAACCTAGCATAGTAGCTTGATCTTCTTTCGGAGTCACCTAGTGCAG”, the binding signal is 9370 fluorescence intensity (a.u.).

Take “GCCCGCCGCCGTCTACTCCTCTCCCGCGCCGCCGGCCGCCCGGAGTCACCTAGTGCAG”: the binding signal was 8950 fluorescence intensity (a.u.).

With “CCACTCCGTCGCGTCGCCGTCACCTCCGCCCAGGAATCCGCGGAGTCACCTAGTGCAG”, the binding signal is 8490 fluorescence intensity (a.u.).

For the sequence “ATTTGCTATCATTTTTAACTTTATCTTTTTTTGGTAAAGTCGGAGTCACCTAGTGCAG”, the binding signal is 8820 fluorescence intensity (a.u.).

Consider “GTTCTGCCTTTGTTTCATCGGACAATCTATGGATCGACTCCGGAGTCACCTAGTGCAG”, for which the binding signal is 10800 fluorescence intensity (a.u.).

With “CCAGCTTATCCATCCTCATCCTCACACAAGCGAATCCGGTCGGAGTCACCTAGTGCAG”, the binding signal is 11800 fluorescence intensity (a.u.).

With “CACTACTTCACATGCAACACCGCACTCACACATCCTCGAACGGAGTCACCTAGTGCAG”, the binding signal was 12500 fluorescence intensity (a.u.).

In the case of “GACTTTTCAACACATGACTGCATTGGCTGCTTGATATCGCCGGAGTCACCTAGTGCAG”, the binding signal is 8100 fluorescence intensity (a.u.).

As to “TGCCGCCTCCTCTTCTTTCGCCTATCCTTCTTCAGCACAACGGAGTCACCTAGTGCAG”, the binding signal is 8300 fluorescence intensity (a.u.).

Consider “AGAGAGAGAGAGCCCGTGAGGTGTGGCTGGAATCGTCATGCGGAGTCACCTAGTGCAG”, for which the binding signal is 8360 fluorescence intensity (a.u.).

For “CGGGCGGGGCGGGGCGGGTTCGCTCGTCGGATGTGTGGATCGGAGTCACCTAGTGCAG”, the binding signal was 23900 fluorescence intensity (a.u.).

Consider “ATATATATATATATATATATATATATATATGTGTGTGTGTCGGAGTCACCTAGTGCAG”, for which the binding signal was 12600 fluorescence intensity (a.u.).

Take “CCGCGCATTTTTTTGGTTCGAAATTCCTTTGCTAAGCAAACGGAGTCACCTAGTGCAG”: the binding signal was 8380 fluorescence intensity (a.u.).

Consider “GAACTGTAAAGTCTGTTGTTTGGATCCTCTGCATATTGTTCGGAGTCACCTAGTGCAG”, for which the binding signal was 8420 fluorescence intensity (a.u.).

With “AGTGCAACTCCTGTTGTGTGTTCTTGGTCATCGTCTTCATCGGAGTCACCTAGTGCAG”, the binding signal is 9780 fluorescence intensity (a.u.).

As to “CTCTCACAGGCTCTTCACCATTTCGTGCAATCTCGTCGACCGGAGTCACCTAGTGCAG”, the binding signal is 9720 fluorescence intensity (a.u.).

As to “AATTTTTTCCTGCTCTATCAATAGAACTTCGCACCGTCTCCGGAGTCACCTAGTGCAG”, the binding signal was 8050 fluorescence intensity (a.u.).

For “GTTTATCTCTATCTTTTTTTCATCTTCTCTCTATATATATCGGAGTCACCTAGTGCAG”, the binding signal is 11000 fluorescence intensity (a.u.).

“AGCCTCGTCTTCTTGCACCGCCGCCGCCGACCCTTGCGTACGGAGTCACCTAGTGCAG”: the binding signal was 8790 fluorescence intensity (a.u.).

For “GAGGCCTATATTCTTTTCTGTATCCGGCCCGGCCGGCCCACGGAGTCACCTAGTGCAG”, the binding signal is 12100 fluorescence intensity (a.u.).

Turning to “AAATCTACATGTACACAAATCTTTGATGCAATGCAATATTCGGAGTCACCTAGTGCAG”, the binding signal was 8140 fluorescence intensity (a.u.).

With “CGAAAAGTAAAGTTATTTGGCTACCGGGTGTTTTTAATTTCGGAGTCACCTAGTGCAG”, the binding signal was 8300 fluorescence intensity (a.u.).

Regarding “TTATTGCATCTGTTTCACTGTGTTGCTCGGCCAAACGTACCGGAGTCACCTAGTGCAG”, the binding signal was 11300 fluorescence intensity (a.u.).

“TCCCAGGGAGGTAGCAGCCCAGTCATTTCCTTGGTTTTTTCGGAGTCACCTAGTGCAG”: the binding signal was 8530 fluorescence intensity (a.u.).

“GGATGGGGATGCCAGTTGTGGGATGGCGCAAGGATCTCTCCGGAGTCACCTAGTGCAG”: the binding signal was 10400 fluorescence intensity (a.u.).

Regarding “ATCCTCGTCTACATTCACTGTACCACACCACAAAATATTTCGGAGTCACCTAGTGCAG”, the binding signal was 8430 fluorescence intensity (a.u.).

For “TCATCAATTTCTAACGCTGGTCTTATGTGCTAATTAACTTCGGAGTCACCTAGTGCAG”, the binding signal is 8790 fluorescence intensity (a.u.).

Take “GCCACCACCTGCCTCACTGCCACGTGGAGCCCGCACCACCCGGAGTCACCTAGTGCAG”: the binding signal was 9850 fluorescence intensity (a.u.).

With “CCCCACACGGCCACACCTCGCGCCGGCTCCCTCCTCGCGTCGGAGTCACCTAGTGCAG”, the binding signal was 8790 fluorescence intensity (a.u.).

As for “AAAGTATAGATATTCTACTTTATTTTGGTTTTGTATTAGTCGGAGTCACCTAGTGCAG”, the binding signal was 8280 fluorescence intensity (a.u.).

As to “TGGATCATCCGGCTTCTGTTTTTCTCTCCACCACATATCTCGGAGTCACCTAGTGCAG”, the binding signal was 10100 fluorescence intensity (a.u.).

“GTGCTAGTGTGTGTGGGTGTGGGAGGAGGGGCTCCCCGCGCGGAGTCACCTAGTGCAG”: the binding signal is 14700 fluorescence intensity (a.u.).

Consider “GATCTGTTCTTTGTTTGATTTATTTTTCTAATTTGTTGTTCGGAGTCACCTAGTGCAG”, for which the binding signal is 8270 fluorescence intensity (a.u.).

Consider “ATATGGTAGAGCTGTTCCTGTCCGTTTCTAATCCGTTTTCCGGAGTCACCTAGTGCAG”, for which the binding signal was 9850 fluorescence intensity (a.u.).

For the sequence “TGGTACACAAGTGATGCTTTGGTCTCTAACCTGATACTACCGGAGTCACCTAGTGCAG”, the binding signal was 8530 fluorescence intensity (a.u.).

Regarding “ATATAAATTTCCCTATCGACCCTACATAGGGCGGGCATATCGGAGTCACCTAGTGCAG”, the binding signal was 8500 fluorescence intensity (a.u.).

Consider “CGGTGCTACTTCTTGCCTATACCTCGCAACTTCTCTCATGCGGAGTCACCTAGTGCAG”, for which the binding signal is 9040 fluorescence intensity (a.u.).

Turning to “GATGTGCCCTTTATTCACAACATTTAACAATTGTTACTTGCGGAGTCACCTAGTGCAG”, the binding signal is 8520 fluorescence intensity (a.u.).
